{
  "sequences": {"note": "Sequences of proteins named here, by UniProt entry; tags and fusion partners are left off. A change or cut given only in a name is not applied to a line headed by its entry. Residues count along the entry.", "UniProt O43439": "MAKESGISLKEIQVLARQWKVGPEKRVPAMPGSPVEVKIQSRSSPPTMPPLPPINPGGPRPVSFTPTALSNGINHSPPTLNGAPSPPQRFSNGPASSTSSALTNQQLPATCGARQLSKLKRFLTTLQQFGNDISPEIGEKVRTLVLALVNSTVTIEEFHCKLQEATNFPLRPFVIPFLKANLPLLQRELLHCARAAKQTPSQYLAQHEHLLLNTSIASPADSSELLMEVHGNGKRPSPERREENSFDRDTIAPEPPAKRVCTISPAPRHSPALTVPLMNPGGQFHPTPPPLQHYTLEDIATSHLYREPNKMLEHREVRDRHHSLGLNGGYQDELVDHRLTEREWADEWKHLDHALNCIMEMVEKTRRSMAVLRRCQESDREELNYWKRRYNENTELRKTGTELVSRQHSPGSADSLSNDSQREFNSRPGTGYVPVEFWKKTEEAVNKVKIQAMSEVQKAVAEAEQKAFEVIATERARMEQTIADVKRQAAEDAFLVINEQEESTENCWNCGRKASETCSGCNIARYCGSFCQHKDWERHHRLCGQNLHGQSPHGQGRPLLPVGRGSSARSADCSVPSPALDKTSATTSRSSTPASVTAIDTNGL", "UniProt O14523, 356-381": "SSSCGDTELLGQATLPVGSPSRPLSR", "UniProt Q9BX70": "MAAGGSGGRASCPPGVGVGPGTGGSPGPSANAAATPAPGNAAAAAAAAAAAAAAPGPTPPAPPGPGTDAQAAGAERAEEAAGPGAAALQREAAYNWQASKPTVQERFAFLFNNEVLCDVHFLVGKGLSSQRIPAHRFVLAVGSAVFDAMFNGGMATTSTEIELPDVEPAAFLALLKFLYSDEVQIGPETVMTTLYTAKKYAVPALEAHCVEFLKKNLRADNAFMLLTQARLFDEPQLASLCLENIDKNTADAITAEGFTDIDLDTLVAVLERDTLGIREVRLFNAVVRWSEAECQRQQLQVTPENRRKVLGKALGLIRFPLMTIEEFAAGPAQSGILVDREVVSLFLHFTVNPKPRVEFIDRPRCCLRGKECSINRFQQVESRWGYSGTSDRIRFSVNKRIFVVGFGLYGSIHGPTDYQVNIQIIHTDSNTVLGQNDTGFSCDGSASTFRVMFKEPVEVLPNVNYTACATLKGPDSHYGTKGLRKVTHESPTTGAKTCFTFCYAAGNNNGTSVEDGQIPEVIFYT", "UniProt Q9H3H3": "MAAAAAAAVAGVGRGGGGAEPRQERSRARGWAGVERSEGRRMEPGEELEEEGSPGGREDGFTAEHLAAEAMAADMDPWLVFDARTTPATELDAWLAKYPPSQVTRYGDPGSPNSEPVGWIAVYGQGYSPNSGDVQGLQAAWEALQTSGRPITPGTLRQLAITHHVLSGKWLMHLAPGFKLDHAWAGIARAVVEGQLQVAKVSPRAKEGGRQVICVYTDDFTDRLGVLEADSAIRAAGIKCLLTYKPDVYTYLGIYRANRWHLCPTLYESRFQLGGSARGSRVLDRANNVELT", "UniProt Q8N4T8": "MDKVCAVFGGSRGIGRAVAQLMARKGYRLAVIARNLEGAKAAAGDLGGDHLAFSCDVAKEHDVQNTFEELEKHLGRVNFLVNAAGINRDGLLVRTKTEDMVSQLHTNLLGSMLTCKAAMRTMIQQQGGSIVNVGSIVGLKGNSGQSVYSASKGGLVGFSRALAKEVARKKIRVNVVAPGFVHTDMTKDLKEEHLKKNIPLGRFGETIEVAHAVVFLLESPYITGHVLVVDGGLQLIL", "UniProt P20810": "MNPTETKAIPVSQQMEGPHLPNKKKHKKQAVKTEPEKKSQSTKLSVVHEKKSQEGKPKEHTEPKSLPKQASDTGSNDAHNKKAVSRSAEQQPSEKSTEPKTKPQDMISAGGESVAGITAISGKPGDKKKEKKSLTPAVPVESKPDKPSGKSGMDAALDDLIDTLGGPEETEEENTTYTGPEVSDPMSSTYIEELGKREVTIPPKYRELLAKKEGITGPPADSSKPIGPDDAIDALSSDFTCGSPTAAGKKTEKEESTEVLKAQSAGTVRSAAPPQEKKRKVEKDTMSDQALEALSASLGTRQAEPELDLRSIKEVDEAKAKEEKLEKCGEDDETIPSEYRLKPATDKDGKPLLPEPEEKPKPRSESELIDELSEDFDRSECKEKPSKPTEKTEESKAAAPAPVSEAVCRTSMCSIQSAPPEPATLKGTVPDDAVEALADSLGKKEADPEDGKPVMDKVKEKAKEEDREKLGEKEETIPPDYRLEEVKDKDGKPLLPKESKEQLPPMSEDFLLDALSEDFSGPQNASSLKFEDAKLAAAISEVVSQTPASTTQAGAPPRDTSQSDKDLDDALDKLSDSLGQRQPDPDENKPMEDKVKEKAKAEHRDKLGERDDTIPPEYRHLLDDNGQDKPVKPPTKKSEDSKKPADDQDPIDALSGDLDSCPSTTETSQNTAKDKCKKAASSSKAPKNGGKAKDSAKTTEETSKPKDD", "UniProt P55211": "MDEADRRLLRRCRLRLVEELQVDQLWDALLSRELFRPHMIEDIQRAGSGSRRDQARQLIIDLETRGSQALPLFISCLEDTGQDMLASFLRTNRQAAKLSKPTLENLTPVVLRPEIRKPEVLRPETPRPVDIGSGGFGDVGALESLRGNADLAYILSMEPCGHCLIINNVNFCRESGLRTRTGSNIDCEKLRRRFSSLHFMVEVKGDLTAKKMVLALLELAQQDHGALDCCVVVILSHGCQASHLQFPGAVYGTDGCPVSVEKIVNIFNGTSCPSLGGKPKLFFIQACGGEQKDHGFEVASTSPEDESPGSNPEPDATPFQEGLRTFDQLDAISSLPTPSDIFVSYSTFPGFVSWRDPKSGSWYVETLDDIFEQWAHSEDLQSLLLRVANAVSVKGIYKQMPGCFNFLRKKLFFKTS", "UniProt Q8N999, whole entry, looked up": "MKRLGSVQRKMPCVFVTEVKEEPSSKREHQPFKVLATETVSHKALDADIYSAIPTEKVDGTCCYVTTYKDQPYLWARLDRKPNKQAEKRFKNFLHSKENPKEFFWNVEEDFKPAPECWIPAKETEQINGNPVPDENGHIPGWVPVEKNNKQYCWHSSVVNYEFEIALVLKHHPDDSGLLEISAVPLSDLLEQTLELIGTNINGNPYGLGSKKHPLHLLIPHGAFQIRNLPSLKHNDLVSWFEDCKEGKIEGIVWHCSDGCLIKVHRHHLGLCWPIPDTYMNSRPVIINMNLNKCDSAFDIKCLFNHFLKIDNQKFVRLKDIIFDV", "UniProt Q32NC0": "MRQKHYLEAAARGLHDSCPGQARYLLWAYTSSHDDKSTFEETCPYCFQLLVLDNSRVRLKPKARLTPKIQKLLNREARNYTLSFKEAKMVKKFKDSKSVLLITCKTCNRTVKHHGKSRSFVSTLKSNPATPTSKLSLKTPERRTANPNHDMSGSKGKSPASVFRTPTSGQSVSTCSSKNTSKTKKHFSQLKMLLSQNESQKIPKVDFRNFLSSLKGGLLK", "UniProt Q8NFC6": "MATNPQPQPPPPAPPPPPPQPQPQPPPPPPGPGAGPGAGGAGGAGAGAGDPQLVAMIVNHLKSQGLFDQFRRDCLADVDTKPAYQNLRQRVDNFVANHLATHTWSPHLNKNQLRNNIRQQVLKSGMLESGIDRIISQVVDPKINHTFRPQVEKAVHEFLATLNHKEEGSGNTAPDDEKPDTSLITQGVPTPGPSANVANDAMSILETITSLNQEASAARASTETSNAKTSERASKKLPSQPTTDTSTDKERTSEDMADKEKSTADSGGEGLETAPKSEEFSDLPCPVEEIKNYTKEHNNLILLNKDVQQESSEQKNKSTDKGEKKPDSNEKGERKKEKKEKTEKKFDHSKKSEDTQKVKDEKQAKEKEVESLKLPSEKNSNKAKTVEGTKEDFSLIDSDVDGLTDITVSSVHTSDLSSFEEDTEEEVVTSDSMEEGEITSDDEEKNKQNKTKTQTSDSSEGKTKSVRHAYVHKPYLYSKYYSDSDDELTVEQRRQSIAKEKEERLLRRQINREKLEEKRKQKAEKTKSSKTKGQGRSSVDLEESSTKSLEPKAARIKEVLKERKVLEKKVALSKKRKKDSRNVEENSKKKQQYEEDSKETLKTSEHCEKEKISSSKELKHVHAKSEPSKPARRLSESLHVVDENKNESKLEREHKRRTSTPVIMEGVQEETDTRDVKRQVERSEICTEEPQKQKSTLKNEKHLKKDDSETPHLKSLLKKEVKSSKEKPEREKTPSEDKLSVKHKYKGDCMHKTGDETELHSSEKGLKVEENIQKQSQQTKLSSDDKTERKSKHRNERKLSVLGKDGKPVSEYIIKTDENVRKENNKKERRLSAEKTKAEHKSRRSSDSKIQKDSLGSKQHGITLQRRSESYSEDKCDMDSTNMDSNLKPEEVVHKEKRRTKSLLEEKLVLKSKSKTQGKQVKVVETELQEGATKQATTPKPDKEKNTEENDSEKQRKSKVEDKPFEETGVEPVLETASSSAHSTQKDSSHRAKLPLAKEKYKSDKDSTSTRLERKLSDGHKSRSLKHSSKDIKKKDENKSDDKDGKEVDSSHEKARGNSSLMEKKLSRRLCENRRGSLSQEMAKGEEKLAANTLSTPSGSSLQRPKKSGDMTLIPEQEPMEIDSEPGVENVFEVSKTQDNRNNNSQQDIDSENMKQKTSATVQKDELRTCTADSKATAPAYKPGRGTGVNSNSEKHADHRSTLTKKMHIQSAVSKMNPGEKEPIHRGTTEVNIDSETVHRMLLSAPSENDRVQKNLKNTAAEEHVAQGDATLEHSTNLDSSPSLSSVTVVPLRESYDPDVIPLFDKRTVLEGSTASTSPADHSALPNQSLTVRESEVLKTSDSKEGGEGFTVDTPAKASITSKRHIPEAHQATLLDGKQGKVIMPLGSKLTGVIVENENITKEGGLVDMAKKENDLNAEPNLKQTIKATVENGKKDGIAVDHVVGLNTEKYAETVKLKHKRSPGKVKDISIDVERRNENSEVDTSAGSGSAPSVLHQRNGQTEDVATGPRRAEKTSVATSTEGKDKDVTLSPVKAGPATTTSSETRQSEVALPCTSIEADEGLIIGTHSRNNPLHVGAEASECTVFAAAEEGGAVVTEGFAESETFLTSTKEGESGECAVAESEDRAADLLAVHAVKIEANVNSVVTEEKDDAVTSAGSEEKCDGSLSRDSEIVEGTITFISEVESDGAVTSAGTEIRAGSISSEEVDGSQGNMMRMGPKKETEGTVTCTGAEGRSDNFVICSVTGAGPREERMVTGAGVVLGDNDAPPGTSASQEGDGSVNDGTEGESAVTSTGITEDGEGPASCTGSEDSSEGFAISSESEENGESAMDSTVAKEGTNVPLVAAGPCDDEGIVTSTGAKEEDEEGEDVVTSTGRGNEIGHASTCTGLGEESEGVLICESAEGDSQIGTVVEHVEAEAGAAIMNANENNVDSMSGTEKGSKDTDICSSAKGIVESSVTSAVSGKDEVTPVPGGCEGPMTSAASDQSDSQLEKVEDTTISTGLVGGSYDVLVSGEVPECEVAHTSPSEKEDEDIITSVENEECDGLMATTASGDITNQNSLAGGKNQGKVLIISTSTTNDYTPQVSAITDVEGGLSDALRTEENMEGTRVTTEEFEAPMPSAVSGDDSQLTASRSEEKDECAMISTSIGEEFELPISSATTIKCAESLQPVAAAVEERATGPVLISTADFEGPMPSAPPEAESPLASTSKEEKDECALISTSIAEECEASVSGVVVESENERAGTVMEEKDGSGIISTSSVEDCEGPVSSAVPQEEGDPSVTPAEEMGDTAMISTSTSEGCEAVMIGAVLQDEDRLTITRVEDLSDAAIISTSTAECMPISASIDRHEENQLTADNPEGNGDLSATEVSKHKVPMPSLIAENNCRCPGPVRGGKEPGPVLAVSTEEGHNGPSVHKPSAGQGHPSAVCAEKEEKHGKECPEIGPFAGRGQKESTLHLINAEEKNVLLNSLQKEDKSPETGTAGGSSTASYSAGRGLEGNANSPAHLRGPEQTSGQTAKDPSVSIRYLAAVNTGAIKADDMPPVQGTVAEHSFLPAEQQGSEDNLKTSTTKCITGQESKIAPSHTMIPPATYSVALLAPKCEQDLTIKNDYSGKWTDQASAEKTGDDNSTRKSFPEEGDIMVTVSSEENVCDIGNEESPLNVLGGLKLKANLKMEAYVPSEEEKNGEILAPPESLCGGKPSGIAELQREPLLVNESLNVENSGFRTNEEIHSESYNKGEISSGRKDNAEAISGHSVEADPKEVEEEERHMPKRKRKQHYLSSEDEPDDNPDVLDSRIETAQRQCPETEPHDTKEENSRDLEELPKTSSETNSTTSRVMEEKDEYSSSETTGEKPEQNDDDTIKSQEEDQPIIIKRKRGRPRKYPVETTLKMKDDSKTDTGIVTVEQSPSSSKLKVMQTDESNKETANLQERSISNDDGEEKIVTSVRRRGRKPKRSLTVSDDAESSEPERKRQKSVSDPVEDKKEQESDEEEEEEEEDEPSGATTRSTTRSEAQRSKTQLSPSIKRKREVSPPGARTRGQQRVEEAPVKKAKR"},
  "source": "the supplement of paper PMC11732987",
  "about": "“Enantioselective OTUD7B fragment discovery through chemoproteomics screening and high-throughput optimisation” (Communications Chemistry, 2025)",
  "note": "The list shows a part of the results. The data scatter; read single values as rough.",
  "data": [
    {"compound": "ClCC(=O)N[C@H]1CCCc2ccccc12", "experiment": "log2 mean competition ratio of IA-DTB cysteine labelling (DMSO/compound) (log2 ratio); higher = stronger cysteine engagement by compound", "details": "50 µM; treatment time: 4 h; cell line lysate: HEK293T", "protocol": "(§1)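 IA-DTB competitive cysteine chemoproteomics in HEK293T RIPA lysate. Lysates were treated with compound 29 or 30 at 50 or 200 µM for 4 h, then IA-DTB (500 µM, 1 h), trypsin-digested, NeutrAvidin-enriched and analysed by diaPASEF. Competition ratio = intensity DMSO / intensity compound (n=4 treated, n=64 DMSO); binding: mean log2 CR ≥ 1 and p ≤ 0.05 plus QC filters. Target is the cysteine site.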", "values": [
      {"target": "CBFA2T2 C573 (UniProt O43439)", "log2 mean competition ratio": 0.143},
      {"target": "C2CD2L C359 (UniProt O14523)", "log2 mean competition ratio": -0.281},
      {"target": "BTBD2 C294 (UniProt Q9BX70)", "log2 mean competition ratio": -0.159},
      {"target": "CAMSAP2 C512 (UniProt Q08AD1)", "log2 mean competition ratio": 0.165},
      {"target": "CARMIL1 C1106", "log2 mean competition ratio": -0.00298},
      {"target": "CABIN1 C207 (UniProt Q9Y6J0)", "log2 mean competition ratio": -0.0932},
      {"target": "CAD C986", "log2 mean competition ratio": 0.701},
      {"target": "C11orf68 C214 (UniProt Q9H3H3)", "log2 mean competition ratio": -0.453},
      {"target": "CBR4 C5 (UniProt Q8N4T8)", "log2 mean competition ratio": -0.0293},
      {"target": "CBX4 C185 (UniProt O00257)", "log2 mean competition ratio": 0.115},
      {"target": "CAST C328 (UniProt P20810)", "log2 mean competition ratio": 0.423},
      {"target": "CASP6 C68 (UniProt P55212)", "log2 mean competition ratio": -0.0844},
      {"target": "CBR4 C55 (UniProt Q8N4T8)", "log2 mean competition ratio": -0.248},
      {"target": "CAD C897", "log2 mean competition ratio": 0.259},
      {"target": "CASP9 C187 (UniProt P55211)", "log2 mean competition ratio": -0.0739},
      {"target": "CAST C408 (UniProt P20810)", "log2 mean competition ratio": 0.0766},
      {"target": "C12orf29 C294 (UniProt Q8N999)", "log2 mean competition ratio": 0.306},
      {"target": "C18orf21 C18 (UniProt Q32NC0)", "log2 mean competition ratio": 0.164},
      {"target": "CAD C736", "log2 mean competition ratio": 0.321},
      {"target": "BOD1L1 C2570 (UniProt Q8NFC6)", "log2 mean competition ratio": 0.0192}
    ]},
    {"compound": "ClCC(=O)N[C@H]1CCCc2ccccc12", "experiment": "log2 mean competition ratio of IA-DTB cysteine labelling (DMSO/compound) (log2 ratio); higher = stronger cysteine engagement by compound", "details": "200 µM; treatment time: 4 h; cell line lysate: HEK293T", "protocol": "as §1", "values": [
      {"target": "CBFA2T2 C573 (UniProt O43439)", "log2 mean competition ratio": -0.125},
      {"target": "C2CD2L C359 (UniProt O14523)", "log2 mean competition ratio": 0.0468},
      {"target": "BTBD2 C294 (UniProt Q9BX70)", "log2 mean competition ratio": -0.0472},
      {"target": "CAMSAP2 C512 (UniProt Q08AD1)", "log2 mean competition ratio": -0.0761},
      {"target": "CARMIL1 C1106", "log2 mean competition ratio": 0.48},
      {"target": "CABIN1 C207 (UniProt Q9Y6J0)", "log2 mean competition ratio": 0.0887},
      {"target": "CAD C986", "log2 mean competition ratio": -0.435},
      {"target": "C11orf68 C214 (UniProt Q9H3H3)", "log2 mean competition ratio": -0.373},
      {"target": "CBR4 C5 (UniProt Q8N4T8)", "log2 mean competition ratio": -0.0816},
      {"target": "CBX4 C185 (UniProt O00257)", "log2 mean competition ratio": 0.0428},
      {"target": "CAST C328 (UniProt P20810)", "log2 mean competition ratio": 0.151},
      {"target": "CASP6 C68 (UniProt P55212)", "log2 mean competition ratio": 0.157},
      {"target": "CBR4 C55 (UniProt Q8N4T8)", "log2 mean competition ratio": -0.128},
      {"target": "CAD C897", "log2 mean competition ratio": -0.0425},
      {"target": "CASP9 C187 (UniProt P55211)", "log2 mean competition ratio": 0.00598},
      {"target": "CAST C408 (UniProt P20810)", "log2 mean competition ratio": 0.53},
      {"target": "C12orf29 C294 (UniProt Q8N999)", "log2 mean competition ratio": 0.246},
      {"target": "C18orf21 C18 (UniProt Q32NC0)", "log2 mean competition ratio": -0.0976},
      {"target": "BRCA2 C3198 (UniProt P51587)", "log2 mean competition ratio": -0.34},
      {"target": "CAD C736", "log2 mean competition ratio": -0.204},
      {"target": "BOD1L1 C2570 (UniProt Q8NFC6)", "log2 mean competition ratio": 0.0817}
    ]}
  ]
}
